This is one part of the list. The main result of the screen is listed elsewhere. These columns were measured beside it and carry no call. The list favours compounds with an active or inconclusive main result. Words in brackets tell the shape of the fitted curve; partial curves, single points and poor fits give uncertain potencies.

What is called AC50 is the concentration giving half of the maximal activity seen.

This assay is described as follows: qHTS Assay for Identifying the Cell-Membrane Permeable IMPase Inhibitors. As to conditions: CHO-M1 cells, IP1 accumulation, HTRF TR-FRET ratio; measured here: donor channel 620 nm AC50. In general terms: Quantitative high-throughput screening tests each substance at several concentrations.
With `CCCOc1ccccc1C1CC(=O)Nc2cc3c(cc21)OCCO3` (configuration not stated), the AC50 was 25.1 µM [falling, single point]. To `CC(=O)Nc1nonc1-c1nc2ccccc2n1Cc1ccccc1` belongs 0.0501 µM [falling, full curve, poor fit].

`O=C(CCC(=O)N(c1ccc(F)cc1)C(C(=O)NC1CCCC1)c1ccncc1)Nc1cccnc1` (configuration not stated): the AC50 was 5.01 µM [rising, single point]. With `CNC(=O)CSc1nnc(-c2ccco2)n1-c1ccc(C)cc1` the figure was 31.6 µM [falling, single point]. As for `O=C(CC(NC(=O)c1ccccc1Cl)c1ccccc1)Nc1ccc2c(c1)OCO2` (configuration not stated), the AC50 was 0.01 µM [falling, full curve, poor fit]. To `O=C(CCCc1nc2ccccc2s1)N1CCN(S(=O)(=O)c2cccs2)CC1` belongs 0.126 µM [rising, full curve, poor fit]; to `C/C(O)=C\c1nc(=O)c2c(C)cc(C)nc2n1-c1ccccc1`, 6.31 µM [rising, full curve]; to `O=C(CSC1=Nc2ccccc2C2=NC(CCC(=O)NC3CCCCC3)C(=O)N12)Nc1cccc(Cl)c1` (configuration not stated), 35.5 µM [rising, single point]. With `CCCn1cnc2cc(NCc3cccc(OC)c3O)ccc21` the figure was 20 µM [falling, single point]. On to `COC(=O)c1c(-c2ccc(C)cc2)csc1N`, for which the AC50 is 0.0355 µM [rising, full curve, poor fit]. With `O=C(Nc1ccc(N2CCOCC2)cc1)c1ccncc1` the figure was 7.94 µM [falling, partial curve]. With `O=c1[nH]c2ccsc2c(=O)n1-c1ccc(F)cc1` the figure was 0.02 µM [falling, full curve, poor fit]. With `CCn1c(SCc2nc3sc(C(=O)O)c(C)c3c(=O)[nH]2)nc2ccccc21` the figure was 25.1 µM [falling, single point]; with `O=C(Oc1ccccc1/C=C\C(=O)c1cc2ccccc2o1)c1cccc(F)c1`, 17.8 µM [rising, single point]; with `COc1cccc(N2CC(C(=O)Nc3c(C)cccc3C)CC2=O)c1` (configuration not stated), 0.00794 µM [falling, full curve, poor fit]. Turning to `Cc1nnsc1C(=O)Nc1cc(Cl)ccc1Cl`, the AC50 was 12.6 µM [falling, single point].

Regarding `CC(=O)C1=C(C)NC(SCC(=O)c2ccccc2)=C(C#N)C1CC(C)C` (configuration not stated), the AC50 was 10 µM [rising, partial curve]. With `CCc1ccccc1NC(=O)c1cc2ncc(Br)cn2n1` the figure was 31.6 µM [rising, single point]; with `COCCCNC(=O)C1CCN(c2ncccn2)CC1`, 3.98 µM [falling, partial curve, poor fit]; with `CC(=O)c1nc(N2C(=O)CC(Cc3cc(C)cc(C)c3)C2=O)sc1C` (configuration not stated), 17.8 µM [rising, partial curve]. To `CC(C)COC(=O)CNc1n[nH]c(=S)[nH]c1=O` belongs 12.6 µM [rising, single point]; to `COc1cccc(C(=O)N/N=C2/SCC(=O)N2CCc2ccc(OC)c(OC)c2)c1`, 35.5 µM [falling, single point]. To `CC(C)c1cc(C(=O)Nc2ccc3c(c2)OCO3)no1` belongs 35.5 µM [falling, single point]; to `COc1ccccc1-n1nnnc1SCC(=O)NC1CCCC1`, 5.01 µM [rising, partial curve]; to `COc1cc(C(=O)Nc2ccc(NC(=O)C(C)C)nc2)cc(OC)c1OC`, 6.31 µM [falling, partial curve]. `COc1cc(C2C3=C(CCCC3=O)Nc3[nH]n(-c4ccccc4)c(=O)c32)ccc1O` (configuration not stated): the AC50 was 10 µM [falling, partial curve]. With `Cc1ccc(C(=O)N/N=C2\CCc3ccccc32)c(C)c1`, the AC50 is 35.5 µM [falling, single point]. `COc1ccc2oc(=O)c(C(=O)NCc3ccc4c(c3)OCO4)cc2c1`: the AC50 was 0.2 µM [falling, full curve].

With `O=S(=O)(O)c1nnc2sc3ccccc3n12`, the AC50 was 3.16 µM [falling, single point].

With `COc1ccc(NC(=O)Cn2nnc3sc4c(c3c2=O)CCC(C)C4)c(OC)c1` (configuration not stated), the AC50 was 0.00447 µM [rising, full curve].

For the compound `CCN(CC)CCN1C(=O)C(=O)/C(=C(/O)c2ccc(OC)cc2)C1c1ccco1` (configuration not stated), the AC50 is 1 µM [rising, partial curve, poor fit]. As to `CCN(CC)C(=O)c1ccc2c(c1[N+](=O)[O-])C(=O)c1ccccc1C2=O`, the AC50 was 3.55 µM [rising, single point].

Regarding `Cc1occc1C(=O)NC1CCCCCC1`, the AC50 is 0.00316 µM [rising, full curve, poor fit]. With `COc1cccc(Nc2nnc(SCC(=O)N3CC(C)OC(C)C3)s2)c1` (configuration not stated) the figure was 11.2 µM [falling, partial curve, poor fit]; with `Cc1cc(Oc2ccc(C#N)cc2)nc(NCc2ccccc2)n1`, 0.02 µM [rising, full curve, poor fit]. To `Cc1ccc(NC(=O)CSc2nnc(CN3CCOCC3)n2-c2ccccc2)cc1` belongs 6.31 µM [falling, single point]; to `CC(C)Cn1c(NCCN(C)C)nc2c1c(=O)[nH]c(=O)n2C`, 5.01 µM [falling, partial curve]. To `CC(C)CCNC(=O)C1CCN(c2nnc(-n3cccc3)s2)CC1` belongs 10 µM [falling, partial curve]; to `Cc1cc(N2CCN(c3ccccc3)CC2)nc(-n2nc(C)cc2C)n1`, 31.6 µM [falling, single point]; to `COc1ccc(NC(=O)CSc2nc3c(cc2C#N)CN(C)CC3)cc1`, 0.2 µM [falling, partial curve]. For the compound `Cc1ccccc1CSc1nnc(-c2cccnc2)n1N`, the AC50 was 20 µM [falling, single point].

For `CCC(=O)N1CCc2cc(S(=O)(=O)NC(Cc3ccccc3)C(=O)NC3CCCC3)ccc21` (configuration not stated), the AC50 is 1.26 µM [rising, full curve]. With `O=C(Nc1ccc(-c2nc3ccccc3[nH]2)cc1)C1CCCO1` (configuration not stated) the figure was 0.00501 µM [falling, full curve, poor fit]. With `COc1ccc(C(=S)Nc2ccc(N(C)C)cc2)cc1` the figure was 12.6 µM [falling, partial curve, poor fit]; with `O=C(c1cccc(Br)c1)c1cn(-c2ccccc2)nc1C(=O)c1ccccc1`, 1.58 µM [falling, partial curve]. To `CSc1nc(-c2ccccc2)nc(N2CCCC2)c1C(C)=O` belongs 2.51 µM [falling, partial curve]; to `CC(C)c1ccc(NC(=O)c2cnn3c(C(F)F)cc(-c4ccccc4)nc23)cc1`, 0.01 µM [falling, full curve, poor fit]. `O=C(CCC(=O)c1ccc(F)cc1)Nc1cccnc1`: the AC50 was 0.2 µM [falling, full curve]. With `COc1cc2nc(=S)n3[nH]c(CCn4nc(C)cc4C)nc3c2cc1OC` the figure was 3.16 µM [rising, full curve]; with `O=c1cc(CN2CCN(c3cccc(Cl)c3)CC2)c2cc3c(cc2o1)CCCC3`, 31.6 µM [falling, single point]; with `CCOc1cc(CNCCc2ccc(S(N)(=O)=O)cc2)ccc1OCc1ccc(Cl)cc1`, 0.1 µM [falling, full curve, poor fit].

Regarding `COc1ccc(C(=O)Nc2nnc(Cc3cccs3)s2)cc1OC`, the AC50 was 31.6 µM [rising, single point]. `CCCc1sc(N/N=C/c2ccccn2)nc1-c1ccc(F)cc1`: the AC50 was 31.6 µM [falling, single point].

Turning to `COc1ccccc1N(CC(=O)N1CCC(C)CC1)S(=O)(=O)c1ccc(C)cc1`, the AC50 is 35.5 µM [falling, single point]. To `CC(=O)c1ccc(NC(=S)NNC(=O)c2ccncc2)cc1` belongs 0.316 µM [falling, partial curve]; to `COc1ccccc1N1CCN(C(c2ccc(Cl)cc2)c2nnc(-c3cccc(F)c3)o2)CC1` (configuration not stated), 5.62 µM [falling, partial curve]. To `CCc1nnc(NCC(=O)N2CCc3ccccc32)s1` belongs 5.01 µM [rising, partial curve, poor fit]; to `COc1ccccc1C(=O)Nc1cc2cc(Br)ccc2oc1=O`, 1 µM [falling, full curve]; to `CCOc1c(C)cc2[nH]c(CCC(=O)O)nc2c1C`, 2.51 µM [falling, partial curve, poor fit].

`CCOC(=O)/C(C#N)=C/c1ccc(-c2ccccc2)o1`: the AC50 is 0.0447 µM [falling, full curve]. With `COc1cc(C(=O)NC2CC3CCCC(C2)N3C2CC2)cc(OC)c1OC` (configuration not stated) the figure was 0.158 µM [rising, full curve, poor fit]; with `C=CCO/N=C(/C)c1c(O)c(CC)c(-c2ccccc2)n(-c2ccccc2)c1=O`, 0.126 µM [falling, single point]; with `CC(C)OC(=O)c1c(NS(=O)(=O)c2ccccc2)sc2c1CCCC2`, 0.501 µM [falling, full curve, poor fit]. With `CC1CCCN(c2nc(-c3ccccc3O)nc3ccccc23)C1` (configuration not stated) the figure was 35.5 µM [rising, single point]. Consider `COC(=O)c1nn(-c2ccccc2)c(Cl)c1/C=N/OC(=O)c1ccc(Cl)c(Cl)c1`, for which the AC50 is 0.316 µM [falling, full curve, poor fit]. With `CC(=O)Nc1ccc(OC(=O)c2cc3cc(Br)ccc3oc2=O)cc1` the figure was 0.0141 µM [falling, full curve, poor fit]; with `C=CCn1c(CCNC(=O)c2cccs2)nnc1SCC(=O)Nc1cccc(F)c1`, 0.0794 µM [falling, full curve, poor fit].
